Measured values taken from PMC7949154, “Heat shock transcription factor 1 is SUMOylated in the activated trimeric state” (The Journal of Biological Chemistry, 2020).
For part of these data: Tags and fusion partners may be left off the protein sequences shown. For part of these data: For at least one entry, the source does not settle the construct or the ends of the probe.

What was measured:
[1] = target: Hsf1-S303E,S307E (EE), non-SUMOylated (human) (UniProt Q00613); assay: fluorescence polarization, dissociation assay; conditions: no Hsc70: stays bound, Hsc70 + DnaJB1 + ATP dissociates it; 25 mM Hepes pH 7.6, 150 mM KCl, 5 mM MgCl2, 10% glycerol, 1 mM DTT, 25 C; 5 nM DNA, 0.16-166.67 nM Hsf1 trimer (titration); 25 nM DNA, 0.3 uM trimer (SUMOylation on DNA); recombinant protein; residues 1-529; label: 5' Alexa488 on sense strand
[2] = target: T1, Hsf1-K298R,S303E,S307E (REE) (human) (UniProt Q00613); assay: fluorescence polarization, dissociation assay; conditions: with or without SUMOylation machinery, no Hsc70: stays bound, Hsc70 + DnaJB1 + ATP dissociates it with similar kinetics; 25 mM Hepes pH 7.6, 150 mM KCl, 5 mM MgCl2, 10% glycerol, 1 mM DTT, 25 C; 5 nM DNA, 0.16-166.67 nM Hsf1 trimer (titration); 25 nM DNA, 0.3 uM trimer (SUMOylation on DNA); recombinant protein; residues 1-529; label: 5' Alexa488 on sense strand
T1 sequence (looked up): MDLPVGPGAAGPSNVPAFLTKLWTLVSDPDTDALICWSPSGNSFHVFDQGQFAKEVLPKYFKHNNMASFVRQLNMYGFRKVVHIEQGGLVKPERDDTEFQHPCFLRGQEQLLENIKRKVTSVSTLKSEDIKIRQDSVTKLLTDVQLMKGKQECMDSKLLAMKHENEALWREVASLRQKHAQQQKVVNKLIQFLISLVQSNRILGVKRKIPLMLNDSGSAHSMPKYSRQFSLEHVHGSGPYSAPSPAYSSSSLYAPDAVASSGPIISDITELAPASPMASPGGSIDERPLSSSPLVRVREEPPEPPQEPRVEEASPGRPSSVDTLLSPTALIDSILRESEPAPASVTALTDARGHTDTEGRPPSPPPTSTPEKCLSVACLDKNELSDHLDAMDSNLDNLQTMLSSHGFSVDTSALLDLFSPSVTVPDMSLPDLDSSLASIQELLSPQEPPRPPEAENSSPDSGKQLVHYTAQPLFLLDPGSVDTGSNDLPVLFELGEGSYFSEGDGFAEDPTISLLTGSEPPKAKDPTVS

[3] = target: Hsf1-S303E,S307E (EE), non-SUMOylated (human) (UniProt Q00613); assay: fluorescence polarization equilibrium titration; conditions: trimer, no SUMOylation, Kd shown only in figure; 25 mM Hepes pH 7.6, 150 mM KCl, 5 mM MgCl2, 10% glycerol, 1 mM DTT, 25 C; 5 nM DNA, 0.16-166.67 nM Hsf1 trimer (titration); 25 nM DNA, 0.3 uM trimer (SUMOylation on DNA); recombinant protein; residues 1-529; label: 5' Alexa488 on sense strand

Measured: binding result

CCCCTTCCCGAATATTCCCCC (double strand) [ds-Alexa488-HSEs (3xHSE)]
binds: all assays above
